The text below walks through data of PMC5069690, “Hepatic 3D spheroid models for the detection and study of compounds with cholestatic liability” (Scientific Reports, 2016).

By EC50 is commonly meant the concentration at which the effect is half-maximal.

The subject of this assay is multi-donor PHH spheroids. The assay is described as follows: Repeated-exposure toxicity in multi-donor PHH spheroids with or without BA mixture, albumin secretion. It counts as cell-based. The following applies: Homo sapiens, 336 h, multi-donor PHH spheroids (10 donors), 14 days repeated exposure, co-exposure with BA mixture. As to the method: The cells were seeded in PHH medium (Williams’ medium E containing 100 units/ml penicillin, 100 μg/ml streptomycin, 2 mM L-glutamine, 10 μg/ml insulin, 5.5 μg/ml transferrin, 6.7 ng/ml sodium selenite, 100 nM dexamethasone) supplemented with 10% fetal bovine serum. […] When PHH had reassembled into compact aggregates (day 4–6 after seeding), spheroids were shifted to serum-free PHH medium. […] The spheroids were maintained in serum-free PHH medium.
Toxicity studies were started at day 8 and day 5 for PHH and HepaRG spheroids, respectively.

For the molecule `CCCCc1oc2ccccc2c1C(=O)c1cc(I)c(OCCN(CC)CC)c(I)c1` [Amiodarone, amiodarone], the EC50 worked out at 4.4 µM.
